Data as given in article PMC10047360.

Protein sequences, listed by entry. Tags and fused reporters are not part of them. Lines headed by an entry give the natural chain unless they say otherwise; changes in a name come on top. Residues count along the entry.
UniProt O75581, residues 20-1613: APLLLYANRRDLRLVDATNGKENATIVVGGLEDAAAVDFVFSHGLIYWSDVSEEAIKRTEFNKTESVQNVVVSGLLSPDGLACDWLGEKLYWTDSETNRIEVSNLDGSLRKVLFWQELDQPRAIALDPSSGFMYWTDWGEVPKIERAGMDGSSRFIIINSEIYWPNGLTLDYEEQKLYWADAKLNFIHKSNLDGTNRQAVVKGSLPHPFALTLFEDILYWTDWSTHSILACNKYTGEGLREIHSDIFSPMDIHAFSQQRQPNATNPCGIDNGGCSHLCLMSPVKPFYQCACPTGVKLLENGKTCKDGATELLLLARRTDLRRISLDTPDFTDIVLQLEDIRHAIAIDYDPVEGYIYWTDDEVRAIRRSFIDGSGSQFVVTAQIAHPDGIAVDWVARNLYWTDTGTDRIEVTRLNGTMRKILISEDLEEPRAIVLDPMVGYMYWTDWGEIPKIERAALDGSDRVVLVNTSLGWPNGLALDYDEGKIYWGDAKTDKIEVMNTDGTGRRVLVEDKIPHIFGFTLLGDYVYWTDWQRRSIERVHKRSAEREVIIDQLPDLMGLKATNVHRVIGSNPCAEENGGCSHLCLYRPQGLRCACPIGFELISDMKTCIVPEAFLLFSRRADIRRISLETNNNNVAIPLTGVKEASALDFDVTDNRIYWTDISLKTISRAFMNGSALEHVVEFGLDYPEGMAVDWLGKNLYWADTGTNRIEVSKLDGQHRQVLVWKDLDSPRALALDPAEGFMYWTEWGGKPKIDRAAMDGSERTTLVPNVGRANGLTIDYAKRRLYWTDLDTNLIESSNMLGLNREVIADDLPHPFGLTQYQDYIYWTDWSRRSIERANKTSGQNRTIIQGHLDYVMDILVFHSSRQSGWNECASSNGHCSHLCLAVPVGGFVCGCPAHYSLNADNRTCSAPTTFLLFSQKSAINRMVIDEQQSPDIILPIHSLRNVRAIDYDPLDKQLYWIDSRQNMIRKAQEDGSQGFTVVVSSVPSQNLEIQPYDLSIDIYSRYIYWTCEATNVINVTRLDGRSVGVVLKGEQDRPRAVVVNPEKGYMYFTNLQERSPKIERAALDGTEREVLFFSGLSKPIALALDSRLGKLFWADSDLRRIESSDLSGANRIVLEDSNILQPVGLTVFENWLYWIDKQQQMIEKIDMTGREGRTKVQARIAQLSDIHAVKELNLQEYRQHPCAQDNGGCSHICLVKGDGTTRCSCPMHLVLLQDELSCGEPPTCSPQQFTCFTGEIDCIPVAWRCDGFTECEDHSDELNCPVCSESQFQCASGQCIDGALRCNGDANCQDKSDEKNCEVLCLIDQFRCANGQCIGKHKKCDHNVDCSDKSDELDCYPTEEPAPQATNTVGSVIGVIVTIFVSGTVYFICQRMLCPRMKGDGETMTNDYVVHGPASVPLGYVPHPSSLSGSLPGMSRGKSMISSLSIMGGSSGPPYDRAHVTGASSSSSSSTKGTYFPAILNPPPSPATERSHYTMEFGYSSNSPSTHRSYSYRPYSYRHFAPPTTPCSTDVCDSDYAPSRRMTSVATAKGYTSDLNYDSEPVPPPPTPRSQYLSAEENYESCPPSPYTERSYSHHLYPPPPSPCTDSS
UniProt H2L9Y5: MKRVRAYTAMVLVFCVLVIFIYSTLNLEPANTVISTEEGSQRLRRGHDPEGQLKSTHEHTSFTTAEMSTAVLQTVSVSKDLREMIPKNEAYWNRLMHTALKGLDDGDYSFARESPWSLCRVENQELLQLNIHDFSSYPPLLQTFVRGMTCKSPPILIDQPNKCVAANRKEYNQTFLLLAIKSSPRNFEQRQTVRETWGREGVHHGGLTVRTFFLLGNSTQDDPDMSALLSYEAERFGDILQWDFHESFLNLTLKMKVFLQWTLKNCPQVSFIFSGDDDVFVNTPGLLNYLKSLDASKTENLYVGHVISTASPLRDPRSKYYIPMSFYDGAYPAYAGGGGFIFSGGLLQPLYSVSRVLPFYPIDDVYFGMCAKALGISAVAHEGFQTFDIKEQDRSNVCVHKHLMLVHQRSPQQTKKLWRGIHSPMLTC

Target: human LRP6 (human) (UniProt O75581)
Experiment: co-IP; cells lysed in 1% triton lysis buffer; IP with anti-LRP6 and protein G agarose (untagged LRP6) or anti-Flag M2 affinity gel (Flag-tagged LRP6); which one was used for this co-IP is not told

For “Oryzias latipes (medaka) B3GnT2-like glycosyltransferase (from UniProt H2L9Y5) (enzyme)”, the binding was “binds”.

Results are given in words; binding and its absence hold for the method and conditions named. In cells and extracts the contact can be indirect. A result given as binding can be weak or reduced; the word gives no strength.
